Data: PMC4728409
Results are given in words; binding and its absence hold for the method and conditions named. Binding seen in cells or lysates may run through a third protein. Some results given as binding are weak or reduced against the parent protein; the word gives no strength.

Protein sequences, listed by entry. Tags and fused reporters are not part of them.
UniProt Q12888: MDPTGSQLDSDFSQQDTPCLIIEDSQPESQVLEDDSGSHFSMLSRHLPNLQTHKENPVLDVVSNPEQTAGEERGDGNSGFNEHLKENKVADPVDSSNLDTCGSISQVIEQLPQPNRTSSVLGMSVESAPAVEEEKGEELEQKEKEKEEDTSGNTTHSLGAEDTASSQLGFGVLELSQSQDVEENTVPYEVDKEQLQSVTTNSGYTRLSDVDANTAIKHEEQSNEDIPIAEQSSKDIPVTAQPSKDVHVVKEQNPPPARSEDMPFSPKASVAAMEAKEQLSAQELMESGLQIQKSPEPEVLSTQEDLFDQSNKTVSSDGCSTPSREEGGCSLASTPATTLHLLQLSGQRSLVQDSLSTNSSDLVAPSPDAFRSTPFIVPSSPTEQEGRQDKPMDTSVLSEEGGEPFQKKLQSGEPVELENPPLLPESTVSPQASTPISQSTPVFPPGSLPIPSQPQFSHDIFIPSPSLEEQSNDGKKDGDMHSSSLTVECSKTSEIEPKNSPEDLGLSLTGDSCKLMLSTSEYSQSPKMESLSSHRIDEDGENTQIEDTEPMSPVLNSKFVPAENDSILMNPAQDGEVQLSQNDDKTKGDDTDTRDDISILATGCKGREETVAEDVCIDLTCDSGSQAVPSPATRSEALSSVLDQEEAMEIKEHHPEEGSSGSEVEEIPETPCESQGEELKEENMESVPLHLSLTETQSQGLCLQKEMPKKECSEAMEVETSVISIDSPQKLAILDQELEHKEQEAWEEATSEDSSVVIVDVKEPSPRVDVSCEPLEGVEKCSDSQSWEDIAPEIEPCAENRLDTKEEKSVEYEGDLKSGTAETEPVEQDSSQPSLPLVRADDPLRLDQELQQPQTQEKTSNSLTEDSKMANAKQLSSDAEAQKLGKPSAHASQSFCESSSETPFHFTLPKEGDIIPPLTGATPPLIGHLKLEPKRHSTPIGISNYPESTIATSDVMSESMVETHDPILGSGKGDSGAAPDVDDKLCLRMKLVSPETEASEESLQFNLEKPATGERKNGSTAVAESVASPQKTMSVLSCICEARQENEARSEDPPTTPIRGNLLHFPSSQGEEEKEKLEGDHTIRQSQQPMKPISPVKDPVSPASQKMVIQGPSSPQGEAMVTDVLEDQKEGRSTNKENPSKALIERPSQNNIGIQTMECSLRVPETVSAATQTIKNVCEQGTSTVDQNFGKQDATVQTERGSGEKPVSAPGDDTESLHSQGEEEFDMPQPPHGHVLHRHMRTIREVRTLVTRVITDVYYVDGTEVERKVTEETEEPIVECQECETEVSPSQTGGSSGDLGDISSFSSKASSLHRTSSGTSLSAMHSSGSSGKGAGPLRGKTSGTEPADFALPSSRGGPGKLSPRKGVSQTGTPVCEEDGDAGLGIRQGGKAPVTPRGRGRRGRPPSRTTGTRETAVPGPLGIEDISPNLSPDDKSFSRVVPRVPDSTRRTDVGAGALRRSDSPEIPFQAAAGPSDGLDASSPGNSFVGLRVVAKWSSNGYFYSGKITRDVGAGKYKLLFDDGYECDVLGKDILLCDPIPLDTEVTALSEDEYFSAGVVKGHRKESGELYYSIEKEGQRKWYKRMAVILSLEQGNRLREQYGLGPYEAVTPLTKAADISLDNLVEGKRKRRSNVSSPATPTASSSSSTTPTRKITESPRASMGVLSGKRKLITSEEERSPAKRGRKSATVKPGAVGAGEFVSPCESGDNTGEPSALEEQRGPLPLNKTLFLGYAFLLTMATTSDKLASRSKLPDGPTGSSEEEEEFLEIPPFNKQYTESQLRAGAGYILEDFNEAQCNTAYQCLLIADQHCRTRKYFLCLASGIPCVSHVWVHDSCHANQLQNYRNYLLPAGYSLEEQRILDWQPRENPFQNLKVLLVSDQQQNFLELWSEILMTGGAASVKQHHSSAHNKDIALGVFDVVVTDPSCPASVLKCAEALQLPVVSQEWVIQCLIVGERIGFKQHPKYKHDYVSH
UniProt Q5UIP0: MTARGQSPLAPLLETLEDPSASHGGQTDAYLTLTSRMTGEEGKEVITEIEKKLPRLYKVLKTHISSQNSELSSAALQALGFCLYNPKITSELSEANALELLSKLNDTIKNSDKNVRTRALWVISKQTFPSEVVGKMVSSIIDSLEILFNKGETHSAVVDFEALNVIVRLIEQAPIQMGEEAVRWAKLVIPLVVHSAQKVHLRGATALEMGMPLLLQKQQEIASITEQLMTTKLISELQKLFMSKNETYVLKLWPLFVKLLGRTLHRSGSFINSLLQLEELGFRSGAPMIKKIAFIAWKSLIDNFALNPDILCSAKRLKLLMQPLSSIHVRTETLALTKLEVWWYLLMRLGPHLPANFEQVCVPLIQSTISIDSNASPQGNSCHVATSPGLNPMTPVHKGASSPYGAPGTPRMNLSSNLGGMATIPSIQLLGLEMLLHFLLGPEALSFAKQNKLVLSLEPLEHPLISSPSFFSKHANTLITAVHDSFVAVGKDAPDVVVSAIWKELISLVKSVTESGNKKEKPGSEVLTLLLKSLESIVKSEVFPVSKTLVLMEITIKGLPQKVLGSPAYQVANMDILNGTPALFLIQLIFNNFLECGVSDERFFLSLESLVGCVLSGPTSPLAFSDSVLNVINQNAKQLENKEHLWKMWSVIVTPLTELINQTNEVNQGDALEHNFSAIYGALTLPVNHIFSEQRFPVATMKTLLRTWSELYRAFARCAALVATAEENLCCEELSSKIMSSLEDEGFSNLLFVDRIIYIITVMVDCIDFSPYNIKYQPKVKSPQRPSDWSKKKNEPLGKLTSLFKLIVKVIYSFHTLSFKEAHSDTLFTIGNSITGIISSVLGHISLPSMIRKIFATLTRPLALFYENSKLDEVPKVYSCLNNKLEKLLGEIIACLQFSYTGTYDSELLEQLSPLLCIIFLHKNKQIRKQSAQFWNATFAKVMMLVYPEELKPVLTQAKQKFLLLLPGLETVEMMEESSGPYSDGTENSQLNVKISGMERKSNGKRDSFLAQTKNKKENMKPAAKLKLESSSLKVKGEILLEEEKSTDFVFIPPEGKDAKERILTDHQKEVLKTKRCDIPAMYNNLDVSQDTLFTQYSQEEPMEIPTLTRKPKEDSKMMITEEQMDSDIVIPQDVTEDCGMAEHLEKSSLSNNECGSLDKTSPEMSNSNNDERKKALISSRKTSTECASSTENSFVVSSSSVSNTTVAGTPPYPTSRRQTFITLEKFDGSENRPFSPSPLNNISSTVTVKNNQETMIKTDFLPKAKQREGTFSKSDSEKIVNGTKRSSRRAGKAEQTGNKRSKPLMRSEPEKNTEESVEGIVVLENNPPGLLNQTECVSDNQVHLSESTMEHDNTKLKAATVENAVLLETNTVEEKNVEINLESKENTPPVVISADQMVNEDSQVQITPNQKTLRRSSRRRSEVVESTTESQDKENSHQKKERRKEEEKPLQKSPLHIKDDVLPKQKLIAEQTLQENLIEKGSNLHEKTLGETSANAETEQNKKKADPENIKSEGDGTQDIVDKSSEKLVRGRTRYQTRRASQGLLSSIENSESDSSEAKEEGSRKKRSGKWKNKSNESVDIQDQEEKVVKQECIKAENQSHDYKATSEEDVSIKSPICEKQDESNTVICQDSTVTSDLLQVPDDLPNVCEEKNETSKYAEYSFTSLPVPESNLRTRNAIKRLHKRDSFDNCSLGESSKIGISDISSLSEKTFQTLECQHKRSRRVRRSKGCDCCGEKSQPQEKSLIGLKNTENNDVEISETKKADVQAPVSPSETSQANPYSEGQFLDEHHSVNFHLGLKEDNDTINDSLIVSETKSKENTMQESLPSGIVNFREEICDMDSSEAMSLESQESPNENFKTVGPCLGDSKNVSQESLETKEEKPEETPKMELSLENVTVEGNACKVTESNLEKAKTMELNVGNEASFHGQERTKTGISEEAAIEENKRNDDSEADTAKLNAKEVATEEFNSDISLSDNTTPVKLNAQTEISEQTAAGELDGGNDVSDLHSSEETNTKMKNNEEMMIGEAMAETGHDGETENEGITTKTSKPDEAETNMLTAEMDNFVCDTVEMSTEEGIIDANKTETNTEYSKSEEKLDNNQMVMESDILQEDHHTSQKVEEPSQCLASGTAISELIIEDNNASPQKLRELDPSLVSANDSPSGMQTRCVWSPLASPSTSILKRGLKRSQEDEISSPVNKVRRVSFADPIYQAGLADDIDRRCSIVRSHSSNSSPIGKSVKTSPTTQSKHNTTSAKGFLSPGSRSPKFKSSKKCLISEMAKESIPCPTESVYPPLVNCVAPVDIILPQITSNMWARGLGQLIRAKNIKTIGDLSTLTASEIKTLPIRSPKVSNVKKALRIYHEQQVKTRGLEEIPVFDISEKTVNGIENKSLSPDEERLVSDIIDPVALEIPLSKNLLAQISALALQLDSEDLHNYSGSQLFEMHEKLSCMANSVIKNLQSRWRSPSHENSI

Legend:
[1] = molecular target: 53BP1 (in HEK 293T cells stably expressing UHRF1 shRNA) (UniProt Q12888); assay: co-IP; HEK 293T cells stably expressing UHRF1 shRNA, transfected with the indicated constructs; G1 phase, or S phase with UHRF1 S674A or H754A
[2] = molecular target: 53BP1 (in HEK 293T cells stably expressing UHRF1 shRNA) (UniProt Q12888); assay: co-IP; HEK 293T cells stably expressing UHRF1 shRNA, transfected with the indicated constructs, synchronized at S phase

## RIF1 (in HEK 293T cells stably expressing UHRF1 shRNA) (from UniProt Q5UIP0 1-2472)
[1]
  binding: binds
[2]
  binding: no binding (condition: cells synchronized at S phase)
